# Measurements as given in the supplement of paper PMC11348887.
# Structures can show the parent of a compound that is named as a salt. The list shows a part of the results. Most values lie at the level of the controls, where differences are scatter. Where a SMILES comes first, the peptide text is derived from it. [ ]: non-standard residue; d: D form. The star is where a group is joined. Dolaproine = CO[C@@H]([C@@H]1CCCN1)[C@@H](C)C(=O)O; Dil = CC[C@H](C)[C@H](NC)[C@@H](CC(=O)O)OC; X2 = C[C@@H](N*)[C@@H](O)c1ccccc1; NMeV = CN[C@H](C(=O)O)C(C)C
# Tested on: hPSC-derived cortical neurons (WA09)
# Experiment: nucleus area z-score vs screen plate; higher = larger nuclei (more mature)
# Conditions: 5 µM; treatment: days 7-14 after plating, readout day 21
row,SMILES,nucleus area z-score
1,CC[C@H](C)[C@@H]([C@@H](CC(=O)N1CCC[C@H]1[C@H](OC)[C@@H](C)C(=O)N[C@H](C)[C@@H](O)c1ccccc1)OC)N(C)C(=O)[C@@H](NC(=O)[C@@H](NC)C(C)C)C(C)C [Monomethyl auristatin E (MMAE)] (H-[NMeV]V[Dil][Dolaproine]-X2),-16.2
2,N=C(N)NN [Aminoguanidine hydrochloride],0.19
3,Nc1nc(N)nc(NC2CC2)n1 [Cyromazine],0.305

# Tested on: hPSC-derived cortical neurons (WA09)
# Experiment: total neurite length per nucleus (MAP2) z-score; higher = more neurite growth
# Conditions: 5 µM; treatment: days 7-14 after plating, readout day 21
row,SMILES,total neurite length per nucleus (z-score)
1,CC(=O)OC1CN2CCC1CC2 (stereo unspecified) [Aceclidine HCl],0.528
2,COc1ccc2c(c1)/C(=C/c1cnc[nH]1)C(=O)N2,-0.761
3,C=CCN1CC[C@]23c4c5ccc(O)c4O[C@H]2C(=O)CC[C@@]3(O)[C@H]1C5 [Naloxone HCl Dihydrate],0.17
4,C[C@]12N[C@H](Cc3ccccc31)c1ccccc12 [MK-801 (Dizocilpine)],-0.211
5,CCC(COC(=O)c1cc(OC)c(OC)c(OC)c1)(c1ccccc1)N(C)C (stereo unspecified) [Trimebutine],0.709
6,CC1(C)CC(O)CC(C)(C)N1[O] [Tempol],-0.0406
7,O=C(CC1NCCCC1O)Cn1cnc2cc(Br)c(Cl)cc2c1=O (stereo unspecified) [Halofuginone],-6.22
8,O=C(O[C@H]1C[N+]2(CCCOc3ccccc3)CCC1CC2)C(O)(c1cccs1)c1cccs1 [Aclidinium Bromide],0.618
9,COc1cc(C)[nH]c(=O)c1CNC(=O)c1c(C)n([C@H](C)C2CCOCC2)c2ccccc12,0.0164
10,Nc1ncnc2c1ccn2[C@@H]1O[C@H](CO)[C@@H](O)[C@H]1O [Tubercidin],-6.63
11,C/C=C(\C)C(=O)N[C@@H](c1ccccc1)[C@@H](O)C(=O)O[C@H]1C[C@@]2(O)[C@@H](OC(=O)c3ccccc3)[C@@H]3[C@]4(OC(C)=O)CO[C@@H]4C[C@H](O)[C@@]3(C)C(=O)[C@H](OC(C)=O)C(=C1C)C2(C)C [Cephalomannine],-1.2
12,COc1ccc(C(=O)N2CCCC2=O)cc1 [Aniracetam],0.779
13,NC(=O)c1cc(N2CC2)c([N+](=O)[O-])cc1[N+](=O)[O-],0.145
14,C[C@H]1CNCCc2ccc(Cl)cc21 [Lorcaserin HCl],0.698
15,C#C[C@]1(O)C=C[C@H]2[C@@H]3CCC4=CC(=O)CC[C@@H]4[C@H]3CC[C@@]21CC [Gestodene],-0.0134
16,C=C[C@H]1CN2CC[C@H]1C[C@H]2[C@H](O)c1ccnc2ccccc12 [Cinchonidine],1.58
18,COC1=C[C@@H]2[C@@H]3Cc4ccc(OC)c(O)c4[C@]2(CCN3C)CC1=O [Sinomenine],-0.108
19,COc1cc2c(cc1OC)C1CC(=O)C(CC(C)C)CN1CC2 (stereo unspecified) [Tetrabenazine (Xenazine)],-0.829

# Arranged by number of heavy atoms (high to low): 9 of the compounds above
row,SMILES,total neurite length per nucleus (z-score)
8,O=C(O[C@H]1C[N+]2(CCCOc3ccccc3)CCC1CC2)C(O)(c1cccs1)c1cccs1 [Aclidinium Bromide],0.618
5,CCC(COC(=O)c1cc(OC)c(OC)c(OC)c1)(c1ccccc1)N(C)C (stereo unspecified) [Trimebutine],0.709
3,C=CCN1CC[C@]23c4c5ccc(O)c4O[C@H]2C(=O)CC[C@@]3(O)[C@H]1C5 [Naloxone HCl Dihydrate],0.17
15,C#C[C@]1(O)C=C[C@H]2[C@@H]3CCC4=CC(=O)CC[C@@H]4[C@H]3CC[C@@]21CC [Gestodene],-0.0134
16,C=C[C@H]1CN2CC[C@H]1C[C@H]2[C@H](O)c1ccnc2ccccc12 [Cinchonidine],1.58
10,Nc1ncnc2c1ccn2[C@@H]1O[C@H](CO)[C@@H](O)[C@H]1O [Tubercidin],-6.63
13,NC(=O)c1cc(N2CC2)c([N+](=O)[O-])cc1[N+](=O)[O-],0.145
4,C[C@]12N[C@H](Cc3ccccc31)c1ccccc12 [MK-801 (Dizocilpine)],-0.211
6,CC1(C)CC(O)CC(C)(C)N1[O] [Tempol],-0.0406

# (listing goes on)

row,SMILES,total neurite length per nucleus (z-score)
1,Cc1cccc([C@H](C)c2c[nH]cn2)c1C [Dexmedetomidine],0.414
2,[O-][n+]1ccccc1[S-].[O-][n+]1ccccc1[S-].[Zn+2] [Zinc Pyrithione],-1.13
3,Cn1c(CCCC(=O)O)nc2cc(N(CCCl)CCCl)ccc21 [Bendamustine HCl],-0.488
4,C=C1C[C@@H]2[C@H](CC[C@]3(C)C(=O)CC[C@@H]23)[C@@]2(C)C=CC(=O)C=C12 [Exemestane],0.49
5,Cc1cccc(Cc2c[nH]cn2)c1C [Detomidine HCl],0.514
6,CC(C)N(CCC(C(N)=O)(c1ccccc1)c1ccccn1)C(C)C (stereo unspecified) [Disopyramide Phosphate],-1.13
7,NCC(O)c1ccc(O)cc1 (stereo unspecified) [(+_-)-Octopamine HCl],1.24
8,CCC1(C)CC(=O)NC(=O)C1 [Bemegride],0.293
9,N#C[C@H](O[C@@H]1O[C@H](C(=O)O)[C@@H](O)[C@H](O)[C@H]1O)c1ccccc1 [Laetrile],-0.425
10,CC(C)=CCC[C@]1(C)C=Cc2c(O)c3c(c(CC=C(C)C)c2O1)O[C@]12C(=C[C@@H]4C[C@H]1C(C)(C)O[C@@]2(C/C=C(/C)C(=O)O)C4=O)C3=O [Gambogic Acid],-5.3
11,CCOC(=O)c1cncn1[C@H](C)c1ccccc1 [Etomidate],-0.587
12,Cc1ccc(-n2nccn2)c(C(=O)N2CCN(c3nc4cc(Cl)ccc4o3)CC[C@H]2C)c1 [Suvorexant (MK-4305)],-0.543
13,CC[C@@]1(O)C(=O)OCc2c1cc1n(c2=O)Cc2cc3ccccc3nc2-1 [Camptothecin],-0.682
14,CC(=O)OC12COC1CC(O)C1(C)C(=O)C(O)C3=C(C)C(O)CC(O)(C(OC(=O)c4ccccc4)C21)C3(C)C (stereo unspecified) [10-Deacetylbaccatin-III],-0.142
15,COc1ccc(CN2CCNCC2)c(OC)c1OC [Trimetazidine dihydrochloride],0.0325
16,CC(=O)OC(C)(C)/C=C/C(=O)[C@](C)(O)[C@H]1[C@H](O)C[C@@]2(C)[C@@H]3CC=C4[C@H](C[C@H](O)C(=O)C4(C)C)[C@]3(C)C(=O)C[C@]12C [Cucurbitacin B],-2.59
17,CC[C@H](C)[C@@H]([C@@H](CC(=O)N1CCC[C@H]1[C@H](OC)[C@@H](C)C(=O)N[C@H](C)[C@@H](O)c1ccccc1)OC)N(C)C(=O)[C@@H](NC(=O)[C@@H](NC)C(C)C)C(C)C [Monomethyl auristatin E (MMAE)] (H-[NMeV]V[Dil][Dolaproine]-X2),-4.9
18,N=C(N)NN [Aminoguanidine hydrochloride],-0.198
19,Nc1nc(N)nc(NC2CC2)n1 [Cyromazine],0.693
